Measured values from article doi:10.1101/2022.07.18.500419.
Results are given in words; binding and its absence hold for the method and conditions named. In cells and extracts the contact can be indirect. Binding can be weak; no strength is given.

Amino acid sequences for entries named in this document (tags omitted). Residues count along the entry.
UniProt Q8IFM5, 25-526: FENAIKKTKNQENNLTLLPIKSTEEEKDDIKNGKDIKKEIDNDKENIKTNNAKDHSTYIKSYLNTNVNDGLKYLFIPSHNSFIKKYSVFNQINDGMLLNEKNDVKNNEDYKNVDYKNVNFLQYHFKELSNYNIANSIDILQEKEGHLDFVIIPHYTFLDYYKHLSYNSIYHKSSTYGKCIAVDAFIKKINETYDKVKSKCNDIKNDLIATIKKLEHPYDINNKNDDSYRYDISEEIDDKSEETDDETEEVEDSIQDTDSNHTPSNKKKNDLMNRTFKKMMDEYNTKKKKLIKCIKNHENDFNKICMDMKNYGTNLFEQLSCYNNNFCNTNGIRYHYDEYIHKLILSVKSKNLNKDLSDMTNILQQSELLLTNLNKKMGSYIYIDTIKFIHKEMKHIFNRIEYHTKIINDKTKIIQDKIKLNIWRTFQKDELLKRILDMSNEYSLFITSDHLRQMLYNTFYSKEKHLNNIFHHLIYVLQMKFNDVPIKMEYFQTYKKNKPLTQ

Biological target: full-length recombinant RH5 protein with His-tag (reticulocyte binding protein homologue 5) (Plasmodium falciparum) (UniProt Q8IFM5)
Assay: pull-down

For CD44 (from UniProt P16070-12), the binding was “binds”.
